Test results: patent publication US20260028400A1
These are yes or no findings as the source states them, for the method shown. Some entries that bind do so weakly or less than the wild type.

Protein sequences, listed by entry. Tags and fused reporters are not part of them. Residues count along the entry.
human ROR1 (Q01973, residues 30-403): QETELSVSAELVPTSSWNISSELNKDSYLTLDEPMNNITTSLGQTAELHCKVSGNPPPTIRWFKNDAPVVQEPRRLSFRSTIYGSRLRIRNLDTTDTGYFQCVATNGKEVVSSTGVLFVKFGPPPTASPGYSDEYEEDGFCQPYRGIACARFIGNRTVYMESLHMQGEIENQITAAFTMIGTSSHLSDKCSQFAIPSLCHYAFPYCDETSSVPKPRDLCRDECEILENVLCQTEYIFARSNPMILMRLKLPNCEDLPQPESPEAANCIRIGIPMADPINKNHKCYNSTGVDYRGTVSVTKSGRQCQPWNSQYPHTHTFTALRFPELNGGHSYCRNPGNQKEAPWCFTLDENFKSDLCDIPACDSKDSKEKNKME
FZD+KRD (Q01973, residues 165-395): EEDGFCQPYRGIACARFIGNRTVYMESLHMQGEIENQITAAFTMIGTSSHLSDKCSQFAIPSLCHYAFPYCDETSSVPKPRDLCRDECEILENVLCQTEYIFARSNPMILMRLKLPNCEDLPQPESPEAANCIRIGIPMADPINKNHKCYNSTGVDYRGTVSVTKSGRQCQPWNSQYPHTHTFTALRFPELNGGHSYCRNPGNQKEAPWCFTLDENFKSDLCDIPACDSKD
KRD (Q01973, residues 308-395): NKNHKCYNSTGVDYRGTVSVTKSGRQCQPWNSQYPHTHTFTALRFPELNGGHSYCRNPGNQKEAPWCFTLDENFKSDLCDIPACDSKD
UniProt Q9Z139, residues 30-403: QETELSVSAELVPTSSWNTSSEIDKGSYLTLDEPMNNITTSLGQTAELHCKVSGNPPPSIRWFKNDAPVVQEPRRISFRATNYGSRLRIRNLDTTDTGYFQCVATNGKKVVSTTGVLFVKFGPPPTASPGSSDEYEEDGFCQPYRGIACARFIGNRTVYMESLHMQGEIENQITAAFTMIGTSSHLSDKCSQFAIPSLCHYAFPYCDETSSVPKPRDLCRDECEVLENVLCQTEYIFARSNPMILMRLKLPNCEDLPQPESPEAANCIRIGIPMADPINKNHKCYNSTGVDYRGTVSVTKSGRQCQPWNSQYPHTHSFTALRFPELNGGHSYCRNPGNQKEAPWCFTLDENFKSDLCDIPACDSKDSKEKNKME

How the values were obtained:
[1] = target: KRD (human) (UniProt Q01973); assay: ELISA, IgG on coated domain, OD450
[2] = target: FZD+KRD (human) (UniProt Q01973); assay: ELISA, IgG on coated domain, OD450
[3] = target: mouse ROR1 (mouse) (UniProt Q9Z139); assay: ELISA, IgG on coated mouse ROR1, OD450
[4] = target: mouse ROR1 (mouse) (UniProt Q9Z139); assay: SPR (Biacore 3000)
[5] = target: human ROR1 (human) (UniProt Q01973); assay: SPR (Biacore 3000)
[6] = target: human ROR1 (human) (UniProt Q01973); assay: ELISA, IgG on coated human ROR1, OD450

- binding [1]: no binding (tested: 300 nM)
- binding [2]: binds
- binding [3]: binds
- binding [4]: binds
- binding [5]: binds
- binding [6]: binds
B1: P015002 (antibody, V domains shown)
VH: EVQLLESGGGLVQPGGSLRLSCAASGFTFSDYSMSWVRQAPGKGLEWVSGISHNGGSTYYADSVKGRFTISRDNSKNTLYLQMSSLRAEDTAVYYCARDVSRWSKTRWSYDNAMDVWGQGTLVTVSS
VL: QSVLTQPPSASGTPGQRVTISCTGSSSNIGSNYVSWYRQLPGTAPKLLIYSDSNRPSGVPDRFSGSKSGTSASLAISGLRSEDEADYYCATWDASLSAYVFGGGTKLTVL
